From patent US4568689A, “Pharmaceutical preparation for the treatment of hypertensive disease and myocardial infarction” (priority 1983, dated 1986)

Assay: in vivo
Conditions: mouse, ip, intraperitoneal, white mice
Description: Acute toxicity measurements were carried out in experiments on white mongrel mice upon intraperitoneal administration. […]

With `COC(=O)C1=C(C)NC(C)=C(C(=O)OC)C1c1ccccc1[N+](=O)[O-]` [Nifedipine, reference compound] the LD50 was 185 mg/kg.
